PubChem BioAssay AID2099 (Broad Institute, 2009)
The campaign covered roughly 330,000 compounds. About 230 (0.07%) were called active. Inconclusive means that the source gave no clear call. Such entries were picked first, then a sample of the others.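 Rule for the calls: active = more than half of a compound's replicate wells show inhibition beyond 50%, single wells judged on their own value; inconclusive = some, but no more than half, of replicates pass 50% inhibition; inactive = no replicate passes 50% inhibition.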 Some structures have more than one record in an assay (separate samples or runs), and their calls can disagree.

By UniProt entry, the sequences of proteins in these tests, tags left out. Residues count along the entry.
UniProt Q9H3R0, 1-420 limits assumed: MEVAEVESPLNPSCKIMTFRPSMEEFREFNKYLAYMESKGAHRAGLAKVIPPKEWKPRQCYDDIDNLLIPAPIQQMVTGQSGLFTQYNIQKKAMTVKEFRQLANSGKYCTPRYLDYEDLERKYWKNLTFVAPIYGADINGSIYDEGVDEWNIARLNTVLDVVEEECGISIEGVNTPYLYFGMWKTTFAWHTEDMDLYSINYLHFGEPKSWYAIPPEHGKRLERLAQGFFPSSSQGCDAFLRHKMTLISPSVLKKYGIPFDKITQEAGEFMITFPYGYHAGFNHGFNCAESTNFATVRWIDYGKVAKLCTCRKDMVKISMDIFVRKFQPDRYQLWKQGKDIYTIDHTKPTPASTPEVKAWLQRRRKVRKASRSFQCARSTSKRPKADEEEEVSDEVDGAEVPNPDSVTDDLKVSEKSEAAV

target: Lysine-specific demethylase 4C (Homo sapiens) (UniProt Q9H3R0); experiment: inhibitors of GASC-1 histone demethylase, primary screen, biochemical, fluorescence, DELFIA europium (AID 2099); details: GST-JMJD2C(1-420) H3K9me3 demethylation, at 2.35 µM, hits give high values;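 note: signal counts dimethyl H3K9 product captured on neutravidin plate; 0% = median of DMSO wells and 100% = 0.3 times that DMSO median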

Q: Which inhibition does the source give for `CCOC(=O)c1c(C)n(S(=O)(=O)c2ccc(C)cc2)c2ccc(O)c(C(=O)O)c12` here?
A: inactive: 9.06%

Q: Which inhibition does the source give for `CCN(Cc1ccccc1)C(=O)CCCOc1ccccc1` here?
A: inconclusive: -154%

Q: With `CC(C)(C)NC(=S)NC(C)(C)C` as the compound, how does the inhibition read?
A: inactive: 40.7%

Q: Which inhibition does the source give for `O=C(O)c1ccccc1SCc1ccc2c(c1)OCO2` here?
A: inconclusive: -189%

Q: `CCOC(=O)c1c(C)c(C(=O)N2CCN(c3cccc(Cl)c3)CC2)c(C)n1C` was tested. Which inhibition did it give?
A: inconclusive: -236%

Q: `O=C(Nc1ccc(S(=O)(=O)Nc2ccc(Cl)cc2)cc1)C1CCCO1` (stereo not drawn) was tested. Which inhibition did it give?
A: inconclusive: -32.7%

Q: How did the inhibition turn out when `Cc1cc(C)c2nc(N(CCCN(C)C)C(=O)c3ccc(S(=O)(=O)N4CC(C)OC(C)C4)cc3)sc2c1` (stereo not drawn) was run?
A: inconclusive: -96.6%

Q: `COc1ccc(CCN2CNc3c(c(=O)n(C)c(=O)n3C)C2)cc1OC` was tested. Which inhibition did it give?
A: inconclusive: -49%

Q: How did the inhibition turn out when `O=C(NC1CCc2ccccc21)c1cc(COc2cncc(Cl)c2)on1` (stereo not drawn) was run?
A: active: 60%

Q: `O=C(CN1C(=O)C2C3C=CC(C4CC34)C2C1=O)Oc1ccccc1` (stereo not drawn) was tested. Which inhibition did it give?
A: inconclusive: -63.7%

Q: `COC(=O)c1ccccc1NC(=O)c1ccc2c(c1)OCCO2` was tested. Which inhibition did it give?
A: inconclusive: -112%

Q: For `Cc1ccnc(SCc2cc(=O)c(OC(=O)c3ccc(Br)o3)co2)n1`, which inhibition is on record?
A: inconclusive: -53%

Q: Which inhibition does the source give for `NC(=O)c1cc2cc([N+](=O)[O-])ccc2oc1=O` here?
A: inconclusive: -82.1%

Q: Which inhibition does the source give for `COc1ccc(-c2cc(C#N)nc(NN)n2)cc1` here?
A: inactive: -11.6%

Q: Which inhibition does the source give for `O=C(O)C1CCC(N2C(=O)C3C4CCC(C4)C3C2=O)CC1` (stereo not drawn) here?
A: inconclusive: -94.4%

Q: With `C/C(=N\Nc1nc(N)cc(Cl)n1)c1cccc([N+](=O)[O-])c1` as the compound, how does the inhibition read?
A: inactive: 8.13%

Q: Which inhibition does the source give for `CC(C)/C=C/CN1CCC(Oc2ccc(C(=O)N3CCCC3)cc2)CC1` here?
A: inconclusive: -52%

Q: Which inhibition does the source give for `N#Cc1ccc(N=c2ssnc2Cl)cc1` here?
A: active: 57.7%

Q: How did the inhibition turn out when `Cc1nnc(N/N=C\c2ccc(-c3ccccc3[N+](=O)[O-])o2)n1N` was run?
A: active: 54.7%

Q: With `Cc1ccc(C)c(N(C(=O)c2csnn2)C(C(=O)NC2CCCC2)c2cccnc2)c1` (stereo not drawn) as the compound, how does the inhibition read?
A: active: 71.4%

Q: How did the inhibition turn out when `Cc1ccc(CN2C(=O)C3CCCN3c3ccc(S(=O)(=O)N4CCOCC4)cc32)cc1` (stereo not drawn) was run?
A: inactive: 34.7%

Q: Which inhibition does the source give for `CSc1ncccc1C(=O)OCC(=O)Nc1ccc(S(=O)(=O)N2CCCC2)cc1` here?
A: inactive: 2.96%

Q: Which inhibition does the source give for `CN(C)c1cccc(C(=O)N2CCCC(C(=O)c3cc(F)ccc3F)C2)c1` (stereo not drawn) here?
A: inconclusive: -52.5%

Q: For `CC(C)(C)c1ccc(S(=O)(=O)NC(Cc2ccccc2)C(=O)O)cc1` (stereo not drawn), which inhibition is on record?
A: inconclusive: -166%

Q: `O=S(=O)(c1ccc2ccccc2c1)n1cccn1` was tested. Which inhibition did it give?
A: inconclusive: -57.3%

Q: Which inhibition does the source give for `CCN(CC)CCN1C(=O)C(O)=C(C(=O)c2ccco2)C1c1ccccn1` (stereo not drawn) here?
A: inconclusive: -42.7%

Q: Which inhibition does the source give for `CN1CSC2=C(C#N)C(c3cccc(OCc4ccccc4)c3)CC(=O)N2C1` (stereo not drawn) here?
A: inactive: 2.13%

Q: `N#Cc1nc(-c2cccc3ccccc23)oc1NCC1CCCO1` (stereo not drawn) was tested. Which inhibition did it give?
A: inconclusive: -64.7%

Q: Which inhibition does the source give for `COc1ccc(NC(=O)CSc2c3c(nc4ccccc24)CCC3)c(OC)c1` here?
A: inactive: 0.544%

Q: `CC1CCCCC1NC(=O)CN1CCC(NC(=O)c2cccc(F)c2)CC1` (stereo not drawn) was tested. Which inhibition did it give?
A: inconclusive: -107%

Q: Which inhibition does the source give for `N#CNC(=Nc1cccc(C(F)(F)F)c1)SCc1ccc(C(=O)O)cc1` here?
A: inactive: 0.0288%

Q: `O=C(CCN1C(=O)c2ccccc2C1=O)NCc1ccc(Cl)cc1` was tested. Which inhibition did it give?
A: inconclusive: -86.6%

Q: With `Cc1c(/C=N/NC(=O)COc2ccccc2[N+](=O)[O-])c2ccccc2n1C` as the compound, how does the inhibition read?
A: inactive: 7.99%

Q: How did the inhibition turn out when `O=C(Cc1cccc2ccccc12)N1CCCc2ccccc21` was run?
A: active: 57.6%

Q: Which inhibition does the source give for `CC(C)CCNC(=O)CCn1c(=S)oc2ccccc21` here?
A: inconclusive: -66.1%

Q: For `CC1(C)Cc2c(sc(NC(=O)C(=O)N3CCCC3)c2C#N)CO1`, which inhibition is on record?
A: inconclusive: -90.7%

Q: With `CCOC(=O)C1CCN(c2nc(N)c3c(N)nc(SCC(=O)O)cc3c2C#N)CC1` as the compound, how does the inhibition read?
A: inconclusive: -114%

Q: `Cc1ccc(NC(=O)CSc2nc(=O)n(CCN3CCOCC3)c3c2CCCC3)cc1` was tested. Which inhibition did it give?
A: inactive: -1.33%

Q: How did the inhibition turn out when `O=C(Nc1cc2c3c(c1)CC(=O)N3CCC2)c1ccc(Br)cc1` was run?
A: inconclusive: -79.1%

Q: How did the inhibition turn out when `COc1ccccc1N1CCN(S(=O)(=O)c2cn(C)cn2)CC1` was run?
A: inactive: 3.52%

Q: How did the inhibition turn out when `O=C1CN(C(=O)COC(=O)c2ccc[n+]([O-])c2)c2ccccc2N1` was run?
A: inconclusive: -56.3%

Q: How did the inhibition turn out when `C/C=C(\C)C(=O)O[C@@H]([C@H](O)c1cc2ccc(=O)oc2cc1OC)C(C)(C)O` was run?
A: inactive: -3.16%

Q: Which inhibition does the source give for `O=C(NCc1nnc(SCC(=O)N2CCOCC2)o1)c1cccs1` here?
A: inconclusive: -50.9%

Q: Which inhibition does the source give for `COc1cccc(C(=O)NCCC(=O)NCc2cc(=O)n(C)c(=O)n2C)c1` here?
A: inconclusive: -172%

Q: `CC(C)c1ccccc1NC(=O)COC(=O)Cc1cccc(C(F)(F)F)c1` was tested. Which inhibition did it give?
A: inconclusive: -154%

Q: Which inhibition does the source give for `COc1ccc(-n2c(C)cc(/C=N/Nc3nnc(C)n3N)c2C)cc1` here?
A: active: 68.3%

Q: How did the inhibition turn out when `O=C(Nc1ccc(Cl)cc1)C1CCN(C(=O)c2ccco2)CC1` was run?
A: inactive: -3.42%

Q: Which inhibition does the source give for `C=C(C)COc1ccc2c(C)c(CC(=O)N3C[C@H]4C[C@@H](C3)c3cccc(=O)n3C4)c(=O)oc2c1` here?
A: inconclusive: -84.8%

Q: Which inhibition does the source give for `O=C(CSc1nnc2c(n1)[nH]c1ccccc12)NC1CCCCC1` here?
A: inconclusive: -56%

Q: For `CCOC(=O)c1c(C=O)c(C)n(Cc2ccccc2)c1C`, which inhibition is on record?
A: inconclusive: -106%

Q: Which inhibition does the source give for `O=Cc1cnc2ccccc2c1-c1ccccc1` here?
A: inactive: -3.92%

Q: Which inhibition does the source give for `O=C(O)CCN(Cc1ccccc1)S(=O)(=O)c1ccc(Cl)cc1F` here?
A: inconclusive: -57.6%

Q: `Cc1cc(C(=O)CSc2nc3ccc(Cl)cc3[nH]2)c(C)n1C` was tested. Which inhibition did it give?
A: inactive: 27.4%

Q: How did the inhibition turn out when `CCCCn1c2ccc(F)cc2c2nnc(SCCN3CCCCC3)nc21` was run?
A: inconclusive: -66.9%

Q: For `O=C(O)COc1ccc2c(c1)CCCC2`, which inhibition is on record?
A: inconclusive: -124%

Q: With `Nc1nnc(SC2CC(=O)N(c3ccccc3)C2=O)s1` (stereo not drawn) as the compound, how does the inhibition read?
A: active: 56.9%

Q: For `CSc1nnc(N2C(=O)C(O)=C(C(=O)c3ccco3)C2c2ccc(F)cc2)s1` (stereo not drawn), which inhibition is on record?
A: inconclusive: -103%

Q: How did the inhibition turn out when `CCS(=O)(=O)N1CCN(S(=O)(=O)c2ccccc2)CC1` was run?
A: inconclusive: -60.9%
